Experimental findings from the supplement of paper PMC10849652 are described below.

By UniProt entry, the sequences of proteins in these tests, tags left out. Where a name states a change or a piece, a line headed by the entry shows the natural chain unless it says otherwise.
UniProt Q9Y6A1: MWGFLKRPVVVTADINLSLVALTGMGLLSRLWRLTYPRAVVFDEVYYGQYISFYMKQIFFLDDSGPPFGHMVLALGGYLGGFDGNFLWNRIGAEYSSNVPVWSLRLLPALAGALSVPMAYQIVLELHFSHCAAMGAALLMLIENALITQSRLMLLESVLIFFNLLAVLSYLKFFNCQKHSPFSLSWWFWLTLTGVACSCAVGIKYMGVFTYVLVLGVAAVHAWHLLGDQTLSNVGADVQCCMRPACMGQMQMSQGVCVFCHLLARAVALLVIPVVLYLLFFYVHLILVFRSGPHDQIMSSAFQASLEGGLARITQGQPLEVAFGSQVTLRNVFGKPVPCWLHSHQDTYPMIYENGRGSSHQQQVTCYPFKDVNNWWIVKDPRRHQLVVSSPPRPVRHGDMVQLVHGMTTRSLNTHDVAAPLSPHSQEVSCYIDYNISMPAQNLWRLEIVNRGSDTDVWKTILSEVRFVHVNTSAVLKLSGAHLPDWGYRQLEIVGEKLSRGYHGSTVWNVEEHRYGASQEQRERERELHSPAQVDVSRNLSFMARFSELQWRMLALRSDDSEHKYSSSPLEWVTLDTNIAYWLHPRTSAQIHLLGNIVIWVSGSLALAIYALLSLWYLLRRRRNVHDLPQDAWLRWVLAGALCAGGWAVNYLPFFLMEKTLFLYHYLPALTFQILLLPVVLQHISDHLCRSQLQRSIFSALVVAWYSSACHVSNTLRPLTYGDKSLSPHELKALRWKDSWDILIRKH
UniProt Q8NEY8: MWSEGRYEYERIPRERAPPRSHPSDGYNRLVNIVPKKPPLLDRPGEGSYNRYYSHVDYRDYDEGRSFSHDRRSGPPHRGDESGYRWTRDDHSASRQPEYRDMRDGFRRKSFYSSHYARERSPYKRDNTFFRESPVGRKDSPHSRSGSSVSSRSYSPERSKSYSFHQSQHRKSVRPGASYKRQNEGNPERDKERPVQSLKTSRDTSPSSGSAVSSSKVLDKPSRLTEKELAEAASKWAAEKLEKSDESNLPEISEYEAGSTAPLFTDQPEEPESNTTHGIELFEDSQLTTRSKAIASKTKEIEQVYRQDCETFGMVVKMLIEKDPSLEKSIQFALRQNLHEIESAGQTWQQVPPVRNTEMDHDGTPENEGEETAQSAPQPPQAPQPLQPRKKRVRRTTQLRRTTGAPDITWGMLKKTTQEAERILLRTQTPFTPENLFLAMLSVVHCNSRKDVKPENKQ
UniProt Q6T4P5: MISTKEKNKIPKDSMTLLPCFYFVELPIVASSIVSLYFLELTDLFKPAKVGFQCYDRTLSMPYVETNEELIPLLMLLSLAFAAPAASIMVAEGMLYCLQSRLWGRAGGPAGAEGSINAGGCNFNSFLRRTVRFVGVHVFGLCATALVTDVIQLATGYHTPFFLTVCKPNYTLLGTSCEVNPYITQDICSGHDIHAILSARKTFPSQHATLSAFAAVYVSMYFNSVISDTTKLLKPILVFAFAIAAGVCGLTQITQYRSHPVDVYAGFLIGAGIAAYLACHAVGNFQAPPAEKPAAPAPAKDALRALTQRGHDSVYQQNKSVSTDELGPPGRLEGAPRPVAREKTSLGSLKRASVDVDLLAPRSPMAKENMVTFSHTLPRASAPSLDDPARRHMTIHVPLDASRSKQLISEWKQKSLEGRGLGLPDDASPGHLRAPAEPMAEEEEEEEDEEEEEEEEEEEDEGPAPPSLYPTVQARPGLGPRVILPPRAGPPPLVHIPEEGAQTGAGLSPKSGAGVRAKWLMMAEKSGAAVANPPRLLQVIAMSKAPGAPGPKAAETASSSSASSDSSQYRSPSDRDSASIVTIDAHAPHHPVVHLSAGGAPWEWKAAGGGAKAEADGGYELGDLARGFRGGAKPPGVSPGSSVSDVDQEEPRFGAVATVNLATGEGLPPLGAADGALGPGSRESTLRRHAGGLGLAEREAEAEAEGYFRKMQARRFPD
UniProt P55058, whole entry, looked up: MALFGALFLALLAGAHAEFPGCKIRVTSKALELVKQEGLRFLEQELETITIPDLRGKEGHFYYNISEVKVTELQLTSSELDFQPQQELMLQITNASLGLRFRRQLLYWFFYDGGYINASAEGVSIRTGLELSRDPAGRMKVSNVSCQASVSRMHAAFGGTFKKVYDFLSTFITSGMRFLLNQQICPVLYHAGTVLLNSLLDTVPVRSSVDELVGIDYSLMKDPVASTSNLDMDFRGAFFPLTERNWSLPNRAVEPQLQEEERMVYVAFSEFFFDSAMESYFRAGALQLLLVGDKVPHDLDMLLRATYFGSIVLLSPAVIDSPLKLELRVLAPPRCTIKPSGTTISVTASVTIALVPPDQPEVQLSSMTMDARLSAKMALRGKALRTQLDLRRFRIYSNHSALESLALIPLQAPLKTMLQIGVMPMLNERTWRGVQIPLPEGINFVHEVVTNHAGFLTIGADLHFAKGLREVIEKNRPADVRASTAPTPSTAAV
UniProt P0DPB6, whole entry, looked up: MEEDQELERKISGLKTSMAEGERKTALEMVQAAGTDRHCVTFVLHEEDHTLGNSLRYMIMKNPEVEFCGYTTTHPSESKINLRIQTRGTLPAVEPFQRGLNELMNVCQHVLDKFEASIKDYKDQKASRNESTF
UniProt Q9NW61: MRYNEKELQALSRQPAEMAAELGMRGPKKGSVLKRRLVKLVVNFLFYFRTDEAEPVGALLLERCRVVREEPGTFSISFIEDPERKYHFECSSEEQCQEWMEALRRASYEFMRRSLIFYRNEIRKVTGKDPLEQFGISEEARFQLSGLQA
UniProt Q02809: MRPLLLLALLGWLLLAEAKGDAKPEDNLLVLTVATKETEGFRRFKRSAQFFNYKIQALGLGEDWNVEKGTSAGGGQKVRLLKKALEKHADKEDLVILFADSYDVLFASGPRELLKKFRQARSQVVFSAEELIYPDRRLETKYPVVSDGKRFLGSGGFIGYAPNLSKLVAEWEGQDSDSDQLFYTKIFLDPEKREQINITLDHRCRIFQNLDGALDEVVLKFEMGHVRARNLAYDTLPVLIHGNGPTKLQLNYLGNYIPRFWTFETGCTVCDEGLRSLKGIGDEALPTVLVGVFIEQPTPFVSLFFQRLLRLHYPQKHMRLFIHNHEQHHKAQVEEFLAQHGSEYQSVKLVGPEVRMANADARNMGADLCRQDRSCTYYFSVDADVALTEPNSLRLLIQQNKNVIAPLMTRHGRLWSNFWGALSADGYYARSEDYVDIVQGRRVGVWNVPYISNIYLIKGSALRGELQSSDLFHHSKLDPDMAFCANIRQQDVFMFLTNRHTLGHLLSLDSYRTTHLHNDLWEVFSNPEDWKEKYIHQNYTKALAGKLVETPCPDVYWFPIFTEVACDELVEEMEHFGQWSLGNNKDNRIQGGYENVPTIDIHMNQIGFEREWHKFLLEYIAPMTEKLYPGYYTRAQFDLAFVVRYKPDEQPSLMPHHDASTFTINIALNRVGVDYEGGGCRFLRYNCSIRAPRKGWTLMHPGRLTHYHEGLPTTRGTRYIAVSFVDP
UniProt Q58EX7: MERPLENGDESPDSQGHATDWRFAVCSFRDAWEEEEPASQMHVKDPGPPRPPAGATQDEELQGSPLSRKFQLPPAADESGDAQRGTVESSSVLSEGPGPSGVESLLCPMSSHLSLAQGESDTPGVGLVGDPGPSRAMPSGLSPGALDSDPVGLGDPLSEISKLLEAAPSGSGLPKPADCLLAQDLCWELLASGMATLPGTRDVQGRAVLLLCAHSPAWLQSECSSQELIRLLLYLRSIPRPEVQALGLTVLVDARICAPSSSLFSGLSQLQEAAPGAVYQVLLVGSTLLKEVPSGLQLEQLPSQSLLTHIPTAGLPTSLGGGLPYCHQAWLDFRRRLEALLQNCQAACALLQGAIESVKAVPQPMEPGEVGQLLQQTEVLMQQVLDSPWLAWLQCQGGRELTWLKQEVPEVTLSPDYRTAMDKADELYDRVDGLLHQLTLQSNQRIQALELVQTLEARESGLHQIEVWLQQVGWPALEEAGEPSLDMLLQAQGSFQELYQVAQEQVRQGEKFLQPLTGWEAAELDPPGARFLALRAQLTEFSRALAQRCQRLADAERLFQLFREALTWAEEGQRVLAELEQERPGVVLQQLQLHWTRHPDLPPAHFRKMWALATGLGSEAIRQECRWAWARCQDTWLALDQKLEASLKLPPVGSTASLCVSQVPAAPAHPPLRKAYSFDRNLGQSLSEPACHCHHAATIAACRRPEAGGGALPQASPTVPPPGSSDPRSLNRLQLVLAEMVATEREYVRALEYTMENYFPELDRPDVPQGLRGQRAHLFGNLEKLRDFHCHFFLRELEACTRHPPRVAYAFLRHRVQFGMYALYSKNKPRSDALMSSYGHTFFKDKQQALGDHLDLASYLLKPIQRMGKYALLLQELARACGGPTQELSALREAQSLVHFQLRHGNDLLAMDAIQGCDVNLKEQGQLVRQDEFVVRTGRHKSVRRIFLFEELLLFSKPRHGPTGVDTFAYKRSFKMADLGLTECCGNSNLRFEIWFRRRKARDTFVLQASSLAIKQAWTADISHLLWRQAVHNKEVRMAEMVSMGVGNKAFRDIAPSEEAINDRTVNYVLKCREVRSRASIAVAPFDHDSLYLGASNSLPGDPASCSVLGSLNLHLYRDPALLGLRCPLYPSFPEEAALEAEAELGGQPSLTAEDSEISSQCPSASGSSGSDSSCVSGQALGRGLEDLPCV
UniProt P51805: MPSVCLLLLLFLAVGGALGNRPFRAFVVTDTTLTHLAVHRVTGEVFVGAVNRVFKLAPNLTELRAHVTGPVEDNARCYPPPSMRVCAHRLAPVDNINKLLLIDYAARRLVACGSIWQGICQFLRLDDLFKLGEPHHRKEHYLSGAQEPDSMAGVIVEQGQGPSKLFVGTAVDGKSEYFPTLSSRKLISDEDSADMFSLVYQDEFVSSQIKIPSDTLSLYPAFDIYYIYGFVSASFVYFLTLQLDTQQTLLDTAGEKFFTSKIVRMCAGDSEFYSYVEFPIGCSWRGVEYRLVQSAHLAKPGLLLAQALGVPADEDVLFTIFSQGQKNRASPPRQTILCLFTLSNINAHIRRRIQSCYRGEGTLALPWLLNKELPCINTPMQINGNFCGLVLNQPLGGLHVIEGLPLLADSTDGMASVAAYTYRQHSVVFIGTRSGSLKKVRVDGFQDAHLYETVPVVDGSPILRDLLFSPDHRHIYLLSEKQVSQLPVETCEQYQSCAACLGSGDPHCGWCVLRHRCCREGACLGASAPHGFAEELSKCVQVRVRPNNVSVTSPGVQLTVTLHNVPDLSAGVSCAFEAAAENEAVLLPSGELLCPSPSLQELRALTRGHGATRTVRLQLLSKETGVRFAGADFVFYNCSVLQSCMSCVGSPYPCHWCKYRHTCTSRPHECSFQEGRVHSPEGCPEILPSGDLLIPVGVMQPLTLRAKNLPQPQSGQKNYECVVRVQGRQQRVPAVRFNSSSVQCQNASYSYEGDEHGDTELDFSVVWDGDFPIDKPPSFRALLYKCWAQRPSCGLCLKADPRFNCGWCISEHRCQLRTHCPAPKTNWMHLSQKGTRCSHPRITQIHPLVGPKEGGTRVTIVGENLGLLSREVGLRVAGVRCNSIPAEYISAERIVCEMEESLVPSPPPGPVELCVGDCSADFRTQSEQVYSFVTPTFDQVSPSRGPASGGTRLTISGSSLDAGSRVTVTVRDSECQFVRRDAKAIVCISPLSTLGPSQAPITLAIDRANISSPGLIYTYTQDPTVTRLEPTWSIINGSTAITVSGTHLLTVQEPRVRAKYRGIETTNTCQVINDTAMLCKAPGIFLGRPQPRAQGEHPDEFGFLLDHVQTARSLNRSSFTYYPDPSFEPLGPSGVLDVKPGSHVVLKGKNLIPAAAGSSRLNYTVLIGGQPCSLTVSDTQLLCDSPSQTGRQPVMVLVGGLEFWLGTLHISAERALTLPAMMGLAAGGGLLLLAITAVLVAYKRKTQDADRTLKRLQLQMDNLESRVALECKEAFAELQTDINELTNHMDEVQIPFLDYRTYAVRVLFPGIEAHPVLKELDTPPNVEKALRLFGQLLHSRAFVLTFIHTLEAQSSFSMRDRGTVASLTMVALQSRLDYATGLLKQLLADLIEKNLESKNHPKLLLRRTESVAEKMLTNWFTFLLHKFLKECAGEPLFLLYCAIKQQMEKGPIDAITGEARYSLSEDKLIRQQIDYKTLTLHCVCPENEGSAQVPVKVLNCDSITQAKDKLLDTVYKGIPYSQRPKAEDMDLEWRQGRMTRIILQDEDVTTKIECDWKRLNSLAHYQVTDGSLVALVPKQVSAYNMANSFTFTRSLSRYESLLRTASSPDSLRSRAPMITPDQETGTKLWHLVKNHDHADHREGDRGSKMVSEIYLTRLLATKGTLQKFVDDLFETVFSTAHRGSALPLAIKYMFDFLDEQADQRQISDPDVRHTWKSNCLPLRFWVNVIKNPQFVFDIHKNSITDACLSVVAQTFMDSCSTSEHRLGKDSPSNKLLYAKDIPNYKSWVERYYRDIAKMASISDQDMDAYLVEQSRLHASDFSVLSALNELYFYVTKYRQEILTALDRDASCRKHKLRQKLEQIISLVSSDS
UniProt Q9HCU8: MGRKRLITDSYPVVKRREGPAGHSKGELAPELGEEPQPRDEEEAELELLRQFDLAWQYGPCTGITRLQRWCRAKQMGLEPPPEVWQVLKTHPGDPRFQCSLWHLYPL

Some of the results follow.

Common to all, as to experiment: log2 fold change, soluble protein after heating vs DMSO (PISA); higher = thermal stabilisation; K562 lysate, 10 uM; active = over 0.2 and 3.5 SD of the protein, either way, in both replicates (recomputed)
Compound in assay [1]: Cc1sc2c(c1C)C(c1ccc(Cl)cc1)=N[C@@H](CC(=O)OC(C)(C)C)c1nnc(C)n1-2
The gist of the method:
(§1)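 The values are log-two fold changes in thermal stability compared with solvent controls and come from duplicates. They were obtained by TMTpro 16plex LC-MS/MS, with channel sums equalised, on the supernatant after 21,000xg for 90 min. That supernatant came from crude K562 extract at 1 mg/mL protein treated with 10 μM compound for 30 min, heated for 3 min across 48°C-58°C, pooled and brought to 0.5% NP-40 at 4°C.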

Compound in assay [2]: CC1=C2C(=CC=C1)N=C(N(C2=O)C3=CC=CC=C3C)CN4C=NC5=C(N=CN=C54)N
In outline:
as §1

Compound in assay [3]: c1ccc([C@@H]2C[C@H]2NC2CCNCC2)cc1
The gist of the method: as §1

Compound in assay [4]: C1=CC=C(C=C1)[C@H](COC2=CC3=C(C=C2)NC(=O)N3)NC(=O)C4=CC=CN(C4=O)CC5=CC(=C(C=C5)F)F
In outline:
as §1

Compound in assay [5]: CC1=C(SC2=C1C(=N[C@H](C3=NN=C(N32)C)CC(=O)N)C4=CC=C(C=C4)Cl)C
The gist of the method: as §1

Turning to POMT1 (UniProt Q9Y6A1), in assay [1], the log2 fold change is inactive: 0.017.
On to PPHLN1 (UniProt Q8NEY8), for which the log2 fold change is inactive: 0.028 in assay [2] and inactive: -0.047 in assay [3].
On to PNKD (UniProt Q8N490), for which the log2 fold change is inactive: -0.032 in assay [4]; inactive: -0.032 in assay [5]; inactive: -0.137 in assay [2]; inactive: 0.032 in assay [1]; inactive: -0.009 in assay [3].
For PLPPR3 isoform 3 (UniProt Q6T4P5), the log2 fold change in assay [1] is inactive: 0.288.
For the target PLTP (UniProt P55058), the log2 fold change in assay [2] was inactive: 0.168; in assay [1] it was inactive: -0.001; in assay [3], inactive: 0.333.
For the target POMGNT1 isoform 2 (UniProt Q8WZA1), the log2 fold change was inactive: -0.072 in assay [4]; inactive: 0.015 in assay [5]; inactive: -0.027 in assay [2]; inactive: -0.097 in assay [1]; inactive: -0.04 in assay [3].
POGZ (UniProt Q7Z3K3): the values for the log2 fold change in assay [2], in assay [1] and in assay [3] were inactive: 0.087, inactive: -0.119 and inactive: 0.305, respectively.
Take PPFIBP2 (UniProt Q8ND30): the log2 fold change in assay [3] is inactive: 0.342.
For the target PNMT (UniProt P11086), the log2 fold change in assay [2] was inactive: 0.273.
Consider PLS1 (UniProt Q14651), for which the log2 fold change in assay [4] was inactive: 0.047; in assay [5] it was inactive: -0.008; in assay [2] it was inactive: -0.001; in assay [1], inactive: -0.018; in assay [3], inactive: -0.016.
Turning to PLEKHH2 (UniProt E5RGK1), the log2 fold change in assay [2] was inactive: -0.088; in assay [1], inactive: 0.07; in assay [3], inactive: -0.061.
In the case of POLR1D (UniProt P0DPB6), the log2 fold change is inactive: 0.003 in assay [4]; inactive: -0.016 in assay [5]; inactive: -0.025 in assay [2]; inactive: -0.048 in assay [1]; inactive: -0.008 in assay [3].
For the target PLEKHJ1 (UniProt Q9NW61), the log2 fold change in assay [3] was inactive: 0.12.
Regarding POMGNT2 (UniProt Q8NAT1), the log2 fold change in assay [2] is inactive: -0.186; in assay [1], inactive: -0.032; in assay [3], inactive: -0.096.
Consider PNPLA4 (UniProt P41247), for which the log2 fold change is inactive: -0.009 in assay [2], inactive: 0.201 in assay [1] and inactive: -0.019 in assay [3].
As to PNMA8A (UniProt Q86V59), the results for the log2 fold change in assay [4], in assay [5] and in assay [1] were inactive: -0.43, inactive: 0.061 and inactive: -0.048, respectively.
As to POC1A (UniProt Q8NBT0), the log2 fold change was inactive: -0.079 in assay [2] and inactive: -0.177 in assay [3].
Turning to PLEKHM1 (UniProt Q9Y4G2), the log2 fold change in assay [2] is inactive: 0.142.
With PLSCR3 (UniProt Q9NRY6), the values for the log2 fold change in assay [2], in assay [1] and in assay [3] were inactive: 0.402, inactive: 0.21 and inactive: 0.034, respectively.
Regarding PLOD1 (UniProt Q02809), the log2 fold change in assay [4] was inactive: 0; in assay [5], inactive: 0.019; in assay [2], inactive: -0.004; in assay [1], inactive: -0.01; in assay [3], inactive: 0.017.
With POLR2J (UniProt P52435), the figures for the log2 fold change in assay [4], in assay [5] and in assay [1] were inactive: 0.075, inactive: 0.028 and inactive: 0.02, respectively.
For PLPP6 (UniProt Q8IY26), the results for the log2 fold change in assay [2], in assay [1] and in assay [3] were inactive: -0.036, inactive: -0.014 and inactive: 0.059, respectively.
With PPHLN1 isoform 3 (UniProt Q8NEY8), the log2 fold change in assay [2] was inactive: -0.123.
As for POLRMT (UniProt O00411), the log2 fold change in assay [4] was inactive: -0.076; in assay [5] it was inactive: 0.064; in assay [2] it was inactive: 0.063; in assay [1], inactive: 0.051; in assay [3] it was inactive: 0.05.
Consider PODXL (UniProt O00592), for which, in assay [3], the log2 fold change was inactive: 0.021.
With PLEKHG4 (UniProt Q58EX7), the values for the log2 fold change in assay [2], in assay [1] and in assay [3] were inactive: 0.06, inactive: 0.052 and inactive: 0.017, respectively.
Take PLEKHG2 (UniProt Q9H7P9): the log2 fold change in assay [1] was inactive: 0.117; in assay [3], inactive: 0.128.
For the target PML isoform 11 (UniProt P29590), the values for the log2 fold change in assay [2], in assay [1] and in assay [3] were inactive: 0.055, inactive: -0.085 and inactive: -0.061, respectively.
As for POC1B (UniProt Q8TC44), the log2 fold change in assay [2] was inactive: 0.036; in assay [1] it was inactive: 0.02.
As to POTEKP (UniProt Q9BYX7), the log2 fold change in assay [4] was inactive: -0.21; in assay [5] it was inactive: -0.065; in assay [1] it was inactive: 0.052.
Regarding PLXNA3 (UniProt P51805), the log2 fold change is inactive: -0.056 in assay [4], inactive: -0.026 in assay [5], inactive: 0.17 in assay [2] and inactive: -0.37 in assay [3].
As for POLD4 (UniProt Q9HCU8), the log2 fold change in assay [2] was inactive: -0.033; in assay [1], inactive: -0.098.
Regarding POF1B isoform 1 (UniProt Q8WVV4), the log2 fold change was inactive: 0.038 in assay [1] and inactive: -0.218 in assay [3].
Turning to PLXNB1 (UniProt O43157), the log2 fold change in assay [1] was inactive: -0.082.
Take PLXND1 (UniProt Q9Y4D7): the log2 fold change is inactive: -0.039 in assay [4], inactive: 0.082 in assay [5] and inactive: 0.029 in assay [1].
